Data as given in publication PMC2266940.
Results are given in words; binding and its absence hold for the method and conditions named. Binding seen in cells or lysates may run through a third protein. Some binding calls cover weakened binding; strength is not graded here. One block for each binder: values may come before it.

Legend:
[1] = biological target: T1, human SIN3B, endogenous in primary placental cells (human (endogenous in primary placental cells)) (UniProt O75182); assay: co-IP; endogenous proteins in nuclear extracts of primary placental cells (420 mM NaCl extract diluted 1:20 in lysis buffer); IP with α-SIN3B or α-MTG, Western with α-SIN3B, α-ETO, α-MTGR1, α-MTG16
T1 sequence: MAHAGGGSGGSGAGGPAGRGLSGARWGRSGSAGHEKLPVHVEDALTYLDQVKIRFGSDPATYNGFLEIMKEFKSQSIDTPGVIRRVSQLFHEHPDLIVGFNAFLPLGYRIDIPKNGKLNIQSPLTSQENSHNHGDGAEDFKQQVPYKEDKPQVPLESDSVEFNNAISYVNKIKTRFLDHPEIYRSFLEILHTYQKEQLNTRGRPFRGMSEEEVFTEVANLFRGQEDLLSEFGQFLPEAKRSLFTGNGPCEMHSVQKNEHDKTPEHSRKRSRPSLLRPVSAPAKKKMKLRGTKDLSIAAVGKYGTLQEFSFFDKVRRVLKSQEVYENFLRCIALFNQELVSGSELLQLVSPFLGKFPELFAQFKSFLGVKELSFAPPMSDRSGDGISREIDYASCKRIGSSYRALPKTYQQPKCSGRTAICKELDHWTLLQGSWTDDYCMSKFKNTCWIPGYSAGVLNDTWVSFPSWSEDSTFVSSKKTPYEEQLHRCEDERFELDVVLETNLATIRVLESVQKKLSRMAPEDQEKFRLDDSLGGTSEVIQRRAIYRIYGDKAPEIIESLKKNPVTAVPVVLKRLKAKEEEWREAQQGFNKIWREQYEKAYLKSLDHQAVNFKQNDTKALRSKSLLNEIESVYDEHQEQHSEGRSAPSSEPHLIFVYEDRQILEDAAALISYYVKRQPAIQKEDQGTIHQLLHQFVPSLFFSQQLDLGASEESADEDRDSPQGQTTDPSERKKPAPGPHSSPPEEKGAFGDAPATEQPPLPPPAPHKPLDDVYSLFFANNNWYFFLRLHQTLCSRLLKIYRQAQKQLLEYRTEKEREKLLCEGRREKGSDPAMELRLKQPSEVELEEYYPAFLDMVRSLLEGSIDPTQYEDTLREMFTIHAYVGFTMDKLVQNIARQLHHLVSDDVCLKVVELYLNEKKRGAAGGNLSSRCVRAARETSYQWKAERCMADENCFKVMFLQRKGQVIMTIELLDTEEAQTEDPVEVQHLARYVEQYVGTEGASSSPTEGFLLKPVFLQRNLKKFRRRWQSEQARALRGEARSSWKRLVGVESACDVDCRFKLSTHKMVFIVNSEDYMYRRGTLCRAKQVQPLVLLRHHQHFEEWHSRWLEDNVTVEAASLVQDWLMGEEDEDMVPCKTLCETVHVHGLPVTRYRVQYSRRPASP

[2] = biological target: T2, ETO, endogenous in primary placental cells (human (endogenous in primary placental cells)) (UniProt Q06455); assay: as above
T2 sequence: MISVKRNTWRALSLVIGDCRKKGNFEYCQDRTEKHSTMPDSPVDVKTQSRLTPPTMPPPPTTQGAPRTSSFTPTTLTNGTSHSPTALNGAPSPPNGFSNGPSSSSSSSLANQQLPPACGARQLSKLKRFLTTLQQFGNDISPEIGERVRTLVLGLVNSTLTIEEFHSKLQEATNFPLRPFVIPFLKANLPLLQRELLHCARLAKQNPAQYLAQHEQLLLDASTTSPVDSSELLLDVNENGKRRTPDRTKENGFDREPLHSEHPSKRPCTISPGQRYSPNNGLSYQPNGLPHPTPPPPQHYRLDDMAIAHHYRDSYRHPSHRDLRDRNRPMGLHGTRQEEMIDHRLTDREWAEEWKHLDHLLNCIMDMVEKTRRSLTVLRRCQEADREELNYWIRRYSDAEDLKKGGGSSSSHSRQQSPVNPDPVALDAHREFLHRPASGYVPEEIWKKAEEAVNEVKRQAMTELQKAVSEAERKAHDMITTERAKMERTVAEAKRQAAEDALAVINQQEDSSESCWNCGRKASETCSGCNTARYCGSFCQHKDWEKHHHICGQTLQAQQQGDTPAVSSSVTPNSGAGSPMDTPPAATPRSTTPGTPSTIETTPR

B2: ETO, endogenous in primary placental cells (protein, UniProt Q06455 1-604)
chain: T2 sequence
- binding [1]: binds

B4: MTG16, endogenous in primary placental cells (protein, UniProt O75081 1-653)
chain: MPASRLRDRAASSASGSTCGSMSQTHPVLESGLLASAGCSAPRGPRKGGPAPVDRKAKASAMPDSPAEVKTQPRSTPPSMPPPPPAASQGATRPPSFTPHTHREDGPATLPHGRFHGCLKWSMVCLLMNGSSHSPTAINGAPCTPNGFSNGPATSSTASLSTQHLPPACGARQLSKLKRFLTTLQQFGSDISPEIGERVRTLVLGLVNSTLTIEEFHSKLQEATNFPLRPFVIPFLKANLPLLQRELLHCARLAKQTPAQYLAQHEQLLLDASASSPIDSSELLLEVNENGKRRTPDRTKENGSDRDPLHPEHLSKRPCTLNPAQRYSPSNGPPQPTPPPHYRLEDIAMAHHFRDAYRHPDPRELRERHRPLVVPGSRQEEVIDHKLTEREWAEEWKHLNNLLNCIMDMVEKTRRSLTVLRRCQEADREELNHWARRYSDAEDTKKGPAPAAARPRSSSAGPEGPQLDVPREFLPRTLTGYVPEDIWRKAEEAVNEVKRQAMSELQKAVSDAERKAHELITTERAKMERALAEAKRQASEDALTVINQQEDSSESCWNCGRKASETCSGCNAARYCGSFCQHRDWEKHHHVCGQSLQGPTAVVADPVPGPPEAAHSLGPSLPVGAASPSEAGSAGPSRPGSPSPPGPLDTVPR
- binding [1]: no binding

The next lines start with the values.

- binding [1]: no binding
B1: MTGR1, endogenous in primary placental cells (protein, UniProt O43439 1-604)
chain: MAKESGISLKEIQVLARQWKVGPEKRVPAMPGSPVEVKIQSRSSPPTMPPLPPINPGGPRPVSFTPTALSNGINHSPPTLNGAPSPPQRFSNGPASSTSSALTNQQLPATCGARQLSKLKRFLTTLQQFGNDISPEIGEKVRTLVLALVNSTVTIEEFHCKLQEATNFPLRPFVIPFLKANLPLLQRELLHCARAAKQTPSQYLAQHEHLLLNTSIASPADSSELLMEVHGNGKRPSPERREENSFDRDTIAPEPPAKRVCTISPAPRHSPALTVPLMNPGGQFHPTPPPLQHYTLEDIATSHLYREPNKMLEHREVRDRHHSLGLNGGYQDELVDHRLTEREWADEWKHLDHALNCIMEMVEKTRRSMAVLRRCQESDREELNYWKRRYNENTELRKTGTELVSRQHSPGSADSLSNDSQREFNSRPGTGYVPVEFWKKTEEAVNKVKIQAMSEVQKAVAEAEQKAFEVIATERARMEQTIADVKRQAAEDAFLVINEQEESTENCWNCGRKASETCSGCNIARYCGSFCQHKDWERHHRLCGQNLHGQSPHGQGRPLLPVGRGSSARSADCSVPSPALDKTSATTSRSSTPASVTAIDTNGL

- binding [2]: binds
B3: human SIN3B, endogenous in primary placental cells (protein, UniProt O75182 1-1162)
chain: T1 sequence
